# Results from paper doi:10.1101/2021.01.20.427456.
# By UniProt entry, the sequences of proteins in these tests, tags left out.
# UniProt Q9H1Y0: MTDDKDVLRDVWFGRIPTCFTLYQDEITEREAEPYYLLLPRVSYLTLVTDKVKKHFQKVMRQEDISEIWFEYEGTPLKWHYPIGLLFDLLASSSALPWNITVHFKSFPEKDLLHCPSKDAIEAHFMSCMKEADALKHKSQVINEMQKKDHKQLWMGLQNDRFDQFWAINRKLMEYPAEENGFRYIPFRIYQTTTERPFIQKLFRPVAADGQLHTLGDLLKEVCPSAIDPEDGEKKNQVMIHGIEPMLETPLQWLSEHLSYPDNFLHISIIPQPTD
# UniProt P46934: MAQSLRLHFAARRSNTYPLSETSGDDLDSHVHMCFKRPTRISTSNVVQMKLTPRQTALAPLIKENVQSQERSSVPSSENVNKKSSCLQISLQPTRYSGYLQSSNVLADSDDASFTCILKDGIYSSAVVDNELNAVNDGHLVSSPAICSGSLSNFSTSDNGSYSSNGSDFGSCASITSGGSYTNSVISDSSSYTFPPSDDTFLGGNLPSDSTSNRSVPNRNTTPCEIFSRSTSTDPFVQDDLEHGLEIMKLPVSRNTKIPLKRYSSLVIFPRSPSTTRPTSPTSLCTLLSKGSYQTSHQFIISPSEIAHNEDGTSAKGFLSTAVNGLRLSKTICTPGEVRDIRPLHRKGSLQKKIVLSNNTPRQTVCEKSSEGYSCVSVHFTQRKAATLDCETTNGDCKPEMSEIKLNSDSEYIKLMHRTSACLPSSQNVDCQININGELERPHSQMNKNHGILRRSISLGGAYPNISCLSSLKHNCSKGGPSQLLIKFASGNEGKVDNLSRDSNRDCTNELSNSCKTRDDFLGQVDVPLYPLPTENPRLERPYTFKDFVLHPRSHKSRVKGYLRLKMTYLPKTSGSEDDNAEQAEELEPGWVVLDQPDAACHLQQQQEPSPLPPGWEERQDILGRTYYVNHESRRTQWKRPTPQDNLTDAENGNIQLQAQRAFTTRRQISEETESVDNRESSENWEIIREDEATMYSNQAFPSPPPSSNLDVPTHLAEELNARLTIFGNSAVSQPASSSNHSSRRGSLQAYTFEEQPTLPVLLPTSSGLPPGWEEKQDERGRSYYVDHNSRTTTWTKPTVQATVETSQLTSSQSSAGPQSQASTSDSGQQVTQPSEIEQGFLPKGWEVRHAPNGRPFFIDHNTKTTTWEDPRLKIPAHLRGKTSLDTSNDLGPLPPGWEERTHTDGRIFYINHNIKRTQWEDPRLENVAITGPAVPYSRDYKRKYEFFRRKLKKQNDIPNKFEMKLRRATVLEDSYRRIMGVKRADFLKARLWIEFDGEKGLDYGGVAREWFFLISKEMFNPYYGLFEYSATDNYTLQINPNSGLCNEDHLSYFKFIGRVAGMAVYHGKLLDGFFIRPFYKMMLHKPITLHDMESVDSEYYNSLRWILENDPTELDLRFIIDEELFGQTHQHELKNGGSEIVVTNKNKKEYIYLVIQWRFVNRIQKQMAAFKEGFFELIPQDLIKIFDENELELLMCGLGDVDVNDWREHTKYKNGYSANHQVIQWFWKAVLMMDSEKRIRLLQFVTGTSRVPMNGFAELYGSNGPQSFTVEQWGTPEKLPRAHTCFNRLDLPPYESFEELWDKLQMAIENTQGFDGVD
# These are yes or no findings as the source states them, for the method shown. Binding seen in cells or lysates may run through a third protein. Some results given as binding are weak or reduced against the parent protein; the word gives no strength. For some assays here: Tags and fused reporters may be left off the sequences shown.
# Legend:
# FLAG-ATG5 (human) = FLAG-ATG5 (human) (UniProt Q9H1Y0); assay: co-IP
# FLAG-ATG7 (human) = biological target: T1, FLAG-ATG7 (human) (UniProt O95352); assay: co-IP
# T1 sequence: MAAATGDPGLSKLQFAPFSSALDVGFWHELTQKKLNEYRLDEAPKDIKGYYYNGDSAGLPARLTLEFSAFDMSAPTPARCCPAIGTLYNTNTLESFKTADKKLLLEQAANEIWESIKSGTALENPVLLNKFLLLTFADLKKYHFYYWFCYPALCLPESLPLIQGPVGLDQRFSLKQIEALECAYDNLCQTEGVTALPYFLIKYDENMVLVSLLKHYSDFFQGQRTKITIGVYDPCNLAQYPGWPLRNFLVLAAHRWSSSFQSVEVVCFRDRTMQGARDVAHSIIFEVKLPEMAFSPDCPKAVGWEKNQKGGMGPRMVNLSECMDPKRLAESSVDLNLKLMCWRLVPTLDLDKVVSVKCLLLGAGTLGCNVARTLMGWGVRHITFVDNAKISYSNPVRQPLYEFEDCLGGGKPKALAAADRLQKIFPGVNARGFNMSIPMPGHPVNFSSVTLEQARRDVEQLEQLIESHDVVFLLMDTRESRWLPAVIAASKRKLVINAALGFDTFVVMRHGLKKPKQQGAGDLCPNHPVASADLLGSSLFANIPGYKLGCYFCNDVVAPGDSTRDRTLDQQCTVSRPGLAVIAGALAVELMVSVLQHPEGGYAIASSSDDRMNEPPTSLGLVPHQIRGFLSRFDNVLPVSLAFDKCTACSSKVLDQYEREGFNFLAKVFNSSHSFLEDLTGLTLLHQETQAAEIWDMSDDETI
substance,measurement,setting,value
"E3 ubiquitin ligase NEDD4 (neural precursor cell expressed, developmentally down-regulated 4) (from UniProt P46934 1-1319) (enzyme)",binding,FLAG-ATG5 (human),binds
same,binding,FLAG-ATG7 (human),binds
